From publication PMC12040169 (PLOS Biology, 2025)
This is one part of the list.

System: T1, CTL2-GFP (C. trachomatis L2/434/Bu, GFP-expressing)
T1 construct: L2/434/Bu, GFP-expressing
Design: species or system HeLa; Intracellular C. trachomatis growth in HeLa cells, bulk GFP fluorescence relative to DMSO
Conditions: bulk GFP, single well; 28.5 h, 10 µM; inhibitor

| Compound | % of control remaining [%] |
| --- | --- |
| Cn1c(=O)n(C)c2cc(CNc3nn[nH]n3)ccc21 [CBK270243] | 178.985 |
| O=C(Nc1cccc2nsnc12)c1ccc(-c2ccc(Br)cc2)o1 [CBK263752] | 86.1373 |
| C=CCOc1ccc(-c2nc3s/c(=C4\C(=O)N(Cc5ccccc5F)c5ccccc54)c(=O)n3n2)cc1 [CBK266615] | 121.466 |
| CCOc1ccc2c(c1)cc(C(=O)N(C)CC(F)(F)F)n2C [CBK281509] | 133.465 |
| N=C(N)NC(=N)Nc1ccc2c(c1)OCCO2 [CBK021572C] | 110.418 |
| Nc1ncc(-c2ccccc2O)nc1-c1ccc(O)cc1 [CBK115548] | 205.887 |
| CN(C)c1cccc(OCCn2ccnc(N3CCNCC3)c2=O)c1 [CBK013866F] | 114.322 |
| Cc1cc(C)c2c(c1)cc(C)c1nn(CC(=O)N3CCCC3)c(=O)n12 [CBK283876] | 132.373 |
| COc1ccccc1OCC(=O)N1CCN(C(=O)c2ccco2)CC1 [CBK144466] | 127.596 |
| CN1CCN(Cc2c(C(C)(C)C)[nH]c3ncccc23)CC1 [CBK285334] | 113.473 |
| O=C(O)c1ccc(CN2C(=O)c3ccc(C(=O)c4ccc(C(=O)O)cc4)cc3C2=O)cc1 [CBK262831] | 125.969 |
| O=C(CCCn1ccnc1)NC(Cc1ccsc1)c1cccnc1 (centres unmarked) [CBK285158] | 121.123 |
| COc1ccccc1-c1cc2nc(C)cc(Nc3ccccc3)n2n1 [CBK287806] | 108.513 |
| CCOC(=O)c1nnsc1Sc1ccc(C)cc1 [CBK018867] | 137.228 |
| O=C(NCCc1ccccn1)N1CCCN(Cc2cccs2)CC1 [CBK305283] | 126.978 |
| CCc1cc(NCCc2ccc(=O)[nH]c2)nc(-c2ccc(Br)cc2)n1 [CBK144610C] | 99.9626 |
| CC(C)Nc1nc(C#N)nc(NC(C)C)n1 [CBK027421] | 118.225 |
| COCc1nnc(Sc2cc(N3CCCC3)ncn2)s1 [CBK093746] | 103.945 |
| Cc1cc2cc(NC(=O)CCc3c(C)n[nH]c3C)ccc2o1 [CBK283077] | 127.349 |
| COc1cc(CNC(=O)N(CCc2ccccc2)Cc2ccccc2)cc(OC)c1OC [CBK155329] | 58.6352 |
| Cc1cc(NC(=O)COc2ccc(Cl)cc2)nc2c1c(=O)oc1ccccc12 [CBK291230] | 160.837 |
| COc1cc(C(=O)Nc2ccccc2C(=O)N2CCN(C)CC2)cc(OC)c1OC [CBK269803] | 112.816 |
| Cc1cccc(C(=O)Nc2nnc(C3=COCCO3)o2)c1 [CBK287406] | 132.716 |
| Cc1nc(N2CCN(Cc3ccc4c(c3)OCO4)CC2)c2c(C)c(C)sc2n1 [CBK266739] | 105.291 |
| O=C(CSc1cccc2ccccc12)Nc1ccc([N+](=O)[O-])cc1O [CBK268696] | 84.7644 |
| Cc1ccc(-c2cc(C(=O)NCC3(C)COC3)no2)cc1 [CBK281744] | 161.143 |
| C[C@@H]1CN(C(=O)c2n[nH]c3ccccc23)C[C@H](C)O1 [CBK200232] | 141.316 |

| Compound | % of control remaining [%] |
| --- | --- |
| Cc1ccc(Cc2nc(-c3cccnc3)no2)cc1 [CBK288141] | 119.513 |
| Cc1nn(-c2ccccc2)c2[nH]c(=O)c(CNC3CCC3)cc12 [CBK282897] | 99.5155 |
| CC(=O)NCC(=O)N(c1ccccc1)C1(C(=O)NC(c2ccccc2)c2ccccc2)CCCC1 [CBK100884] | 110.9 |
| O=S(=O)(NCc1nc2ccccc2[nH]1)c1ccc(Cl)c(Cl)c1 [CBK261137] | 108.689 |
| CC(CCc1ccc(F)cc1)NC(=O)c1cc2c([nH]c1=O)CCC2 (centres unmarked) [CBK281512] | 154.091 |
| COc1nccnc1OC1CCN(CC(N)=O)CC1 [CBK084248] | 113.322 |
| OCC1CCCN1c1cc(Cl)nc2ccnn12 (centres unmarked) [CBK037011] | 102.731 |
| Cn1nc(-c2ccc(S(=O)(=O)Nc3ccc4cn[nH]c4c3)s2)cc1C(F)(F)F [CBK067156] | 127.061 |
| COc1cc(CNCc2ccco2)ccc1OCC(N)=O [CBK270204C] | 116.515 |
| Cc1nc(S(=O)(=O)Nc2ccc3[nH]ccc3c2)cn1C [CBK156800] | 123.413 |
| CCCC/C=C/c1cn2ccnc2c(N2CCN(c3ccccn3)CC2)n1 [CBK066224] | 184.365 |
| O=C(O)C1CCCN(C(=O)Cn2ccc3ccc(OCc4ccccc4)cc32)C1 (centres unmarked) [CBK286814] | 157.807 |
| COc1ccc(C(C)C)cc1-c1cnc(N)c(Nc2ccc3[nH]ccc3c2)n1 [CBK063827] | 209.128 |
| Cc1cc(C)c2oc(-c3ccc(Cl)c(NC(=O)Cc4ccc(Cl)cc4)c3)nc2c1 [CBK264695] | 128.447 |
| CC(=O)O/C(N)=N/c1nonc1N [CBK021885] | 117.403 |
| COc1ccc(CN[C@H]2[C@H](O)[C@@H](N3CCCC3)[C@@H]3OC[C@H]2O3)cc1 [CBK288827] | 180.901 |
| COCCOCN1C(=O)CC2(C1=O)C(=O)N(Cc1ccc(OC(F)(F)F)cc1)c1ccccc12 (centres unmarked) [CBK075942] | 181.369 |
| Cc1c(NCc2ccc3c(c2)n(C)c(=O)n3C)cccc1C(=O)O [CBK287237] | 107.77 |
| Fc1ccc(Oc2nccnc2N2CCN(Cc3cccnc3)CC2)cc1 [CBK083011] | 99.6696 |
| c1ccc(CCN2CCC(c3nc(-c4ccccc4)no3)CC2)cc1 [CBK051454] | 108.298 |
| CN(c1cc(F)ccc1[N+](=O)[O-])S(C)(=O)=O [CBK001365] | 94.1557 |
| CN(CC(=O)O)S(=O)(=O)c1cccc2cccc(Cl)c12 [CBK268433] | 112.783 |
| CC(=O)Nc1ccc(NC(=O)CSCC(=O)O)cc1 [CBK226269] | 158.607 |
| N#Cc1ccc(CNC(=O)N2CCc3ccccc3C2)cc1 [CBK155287] | 158.853 |
| COc1ccc(C(=O)C2=C(O)C(=O)N(CCN(C)C)C2c2ccncc2)c(C)c1 (centres unmarked) [CBK264867] | 134.342 |
| Cc1cc(C)n2ncc(C(=O)NCC(c3cccs3)N3CCCC3)c2n1 (centres unmarked) [CBK305675] | 95.2446 |
| CC(C)CNC(=O)c1cc([C@H]2CC[C@H](CNC(=O)c3cnn(C)c3)CC2)nc2ccccc12 [CBK285867] | 101.225 |

| Compound | % of control remaining [%] |
| --- | --- |
| CCC(NC(=O)C(c1cccs1)c1cccs1)c1ccc(F)cc1 (centres unmarked) [CBK286339] | 82.1142 |
| Cc1nccn1CCNC(=O)CC1C(=O)N(C)c2ccccc21 (centres unmarked) [CBK281977] | 131.422 |
| COc1ccc(CCNC(=O)N2CCCCC2CO)cc1 (centres unmarked) [CBK156188] | 131.141 |
| CC(C)(C)OC(=O)N1CCN(C(=O)N[C@@H](Cc2ccccc2)C(=O)O)CC1 [CBK286785] | 94.8392 |
| O=C(CC1NC(=O)NC1=O)Nc1ccc(C(=O)O)cc1 (centres unmarked) [CBK267355] | 155.896 |
| CCN(CC)CC1CCCN(C(=O)Cn2ccc3ccc(F)cc32)C1 (centres unmarked) [CBK282146] | 140.118 |
| COc1cccc(-c2ccc(NC(=O)c3ccc(Cn4cnnn4)cc3)cc2)c1 [CBK285850] | 130.713 |
| COc1ccc(-c2ccc(C(=O)N(C)C)c(N(C)C(C)=O)n2)cc1 [CBK076500] | 109.256 |
| O=C(NCCc1cc2ccccc2[nH]1)Nc1cccc2ccccc12 [CBK269246] | 79.2422 |
| CC(C)OCC(=O)NC1CCCc2nc(N3CCC(CO)CC3)ncc21 (centres unmarked) [CBK307520] | 149.825 |
| O=C(O)CN(c1ccc(F)cc1)S(=O)(=O)c1ccc2c(c1)OCCO2 [CBK287096] | 110.678 |
| Oc1ccccc1-c1ccnc(SC(F)F)n1 [CBK021971] | 149.062 |
| c1ccc2c(c1)CCN(Cc1ccc3ccccc3c1)C2 [CBK126397] | 77.0455 |
| CCCN1CCC(NC(=O)Cn2nnc3ccccc3c2=O)CC1 [CBK305581] | 123.179 |
| CN(Cc1cccn1C)C(=O)c1cc(-c2cnn(C)c2)[nH]n1 [CBK283325] | 122.449 |
| Cc1ccc(C#N)c(NCc2ccccc2CN2CCCC2CO)n1 (centres unmarked) [CBK304076] | 121.578 |
| COc1c(C)cnc(CNC2CCCN(Cc3noc(C)n3)C2)c1C (centres unmarked) [CBK305350] | 151.515 |
| O=S(=O)(Nc1cccc(OC(F)(F)F)c1)c1ccc(N2CCNCC2)c2ccccc12 [CBK003935C] | 61.8783 |
| COCC(=O)N1CCC2(CC1)CC(=O)c1cc(Cl)cc(Cl)c1O2 [CBK156440] | 107.995 |
| Cc1cc(-c2ccc(/N=C/c3cccc(O)c3O)c(C)c2)ccc1/N=C/c1cccc(O)c1O [CBK261613] | 96.7658 |
| C#CCNC(=O)[C@H]1O[C@H](CCN2CCCCC2)CC[C@@H]1O [CBK288728] | 136.403 |
| CCCN1CC(NS(=O)(=O)c2cc(OC)c(Cl)cc2OC)CC1=O (centres unmarked) [CBK307581] | 113.077 |
| Cc1nn(CC(=O)N2CCCC(C)C2)c(=O)c2cc3sccc3n12 (centres unmarked) [CBK284046] | 140.607 |
| Cc1ccnc2c1C(=O)C1(CC2)CCN(S(=O)(=O)c2c(C)noc2C)CC1 [CBK059557T] | 118.466 |
| COc1cc(NS(=O)(=O)c2ccc(NC(=O)c3ccc(C)o3)cc2)nc(OC)n1 [CBK268182] | 88.8328 |
| CC1=CC(=O)OC1(O)c1ccc(Br)cc1 (centres unmarked) [CBK022687] | 120.334 |

An excerpt of these results, as tab-separated lines.
Compound	% of control remaining [%]
COc1ccc(CCNC(=O)N2CCCCC2CO)cc1 (centres unmarked) [CBK156188]	131.141
CCCN1CCC(NC(=O)Cn2nnc3ccccc3c2=O)CC1 [CBK305581]	123.179
COCC(=O)N1CCC2(CC1)CC(=O)c1cc(Cl)cc(Cl)c1O2 [CBK156440]	107.995
